# Results: patent publication US10688099B2, “Methods for modulating the amount of RNA transcripts” (PTC Therapeutics, Inc., priority 2013, dated 2020)
# Further values from the same series stand in other lists.
# System: RNA isoforms in PNN 1-46 SMA type I patient-derived fibroblasts
# Experiment: RNA Abundance Modulation (RNA isoform abundance, iFPM, HiSeq RNA sequencing)
# Format: cell-based, human
# Settings: 3 μM
# Experimental: Cells from a cell line of interest are cultured in conditions sufficient to yield the number of cells capable of generating enough RNA for subsequent sequencing steps. Cells from the tested cell line are contacted with a compound described herein.
# To culture said cells, they are seeded, at appropriate concentrations in a volume of media in a cell culture container and incubated for 4, 5, 6, 7, 8, 9, 10, or more hours. A concentrated solution of compound in a vehicle (e.g., DMSO) is then added in sufficient volume to result in the intended final concentration of the compound, for example 100 nM, 500 nM, 1 μM, 5 μM, 10 μM, 15 μM, 20 μM, or more. The cells may also be treated with vehicle alone, as a control. A number of replicates of each concentration or control may be made (e.g., 2 replicates). The cells are then incubated at a constant temperature appropriate for cell culture of the particular cell line (e.g., 37° C.) for 6, 12, 18, 24, 48, or more hours. After incubation, the growth medium is removed and the cells are washed with the appropriate buffer (e.g., PBS). Cells are then removed from adherence to the cell culture container by treatment with a solution containing trypsin, and the trypsin subsequently quenched with the appropriate volume of buffer (e.g., DMEM-FBS). The cells are then pelleted with gentle centrifugation (e.g., ≤90×g centrifugal force) and resuspended in a buffer to lyse the cells for extraction of RNA. The cell lysates may then be frozen (e.g., at −80° C.) or, alternately, may immediately be used in a procedure to purify the RNA (e.g. by use of the RNEASY PLUS® minikit). The RNA from cell lysates is eluted in the appropriate volume of buffer (e.g., RNEASE-FREE H2O®). The resulting purified RNA may then be sequenced (e.g., using RNASeq) or analyzed using a human exon array (e.g., by GENECHIP® human exon array) to determine changes in the RNA levels in those cells treated with compound compared to those cells treated only with DMSO. The purified RNA may also be quantified by other methods known in the art.
# Using the RNA data obtained from sequencing, exon array, or other methods, a statistical analysis can reveal changes in the RNA levels of compound-treated compared with control. For example, t-test p-values may be calculated for the data obtained through sequencing and exon array methods in order to compare compound-treated cells to those treated with the DMSO control. […] Analysis of the sequencing and exon array data may then also yield predictions about the cause of the aberrant amount of an RNA transcript in the cells (e.g., perturbation of RNA splicing, RNA transcription, or RNA stability). These predictions may be further confirmed by methods known in the art. For example, RT-PCR and RT-qPCR may be used to confirm the change in amount of RNA transcripts for one or more particular transcripts of interest.
# Following the methods described above in Example 1, PNN 1-46 SMA type I patient-derived fibroblasts were treated with 300 nM or 3 μM Compounds 774 and 808 in 0.5% DMSO.
# 700,000 cells were seeded in 10 mL of medium (DMEM plus 10% FBS) in a T-75 flask. Cells were allowed to attach for at least 4 hrs, after which 50 μL of a 200× compound solution (100% DMSO) was added to each well, and the plate was incubated at 37° C. for 24 hrs.
# At the end of the incubation period, the supernatant was removed and the cells where washed with PBS. TrypLE (Invitrogen) express solution was added (e.g. 1.5 mL per one T75 flask). The flasks were incubated for 3 to 5 min at 37° C. The trypsin was then quenched, e.g., by adding 10 mL DMEM-FBS.
# Next, the cells were pelleted using gentle centrifugation without exceeding 90×g centrifugal force. The supernatant was removed and the cell pellet was re-suspended in 600 μL RLT buffer (the RLT buffer was supplemented with beta-mercaptoethanol according to the RNeasy protocol manual) by pipetting up and down until the pellet was completely dissolved […]
smiles,measurement,setting,value
CCc1nc(C)cn2nc(-c3cc(=O)n4cc(C5CCN(C)CC5)cc(C)c4n3)cc12 [Compound 774],abs (Cpd-DMSO),HAT1 NR_027862,70 iFPM
same,amp FC (x + 1),HAT1 NR_027862,71.14
same,ave Cpd,HAT1 NR_027862,0 iFPM
same,FC (x + 1),HLTF BC044659,0.2429
same,L2FC (x + 1),HLTF BC044659,−2.041
same,L2abs (Cpd-DMSO),HLTF BC044659,8.27
same,abs (Cpd-DMSO),HLTF BC044659,310 iFPM
same,amp FC (x + 1),HLTF BC044659,4.12
same,ave Cpd,HLTF BC044659,98 iFPM
same,FC (x + 1),HLTF EU446704,0.0091
same,L2FC (x + 1),HLTF EU446704,−6.783
same,L2abs (Cpd-DMSO),HLTF EU446704,6.77
same,abs (Cpd-DMSO),HLTF EU446704,109 iFPM
same,amp FC (x + 1),HLTF EU446704,110.14
same,ave Cpd,HLTF EU446704,0 iFPM
same,FC (x + 1),HLTF NM_003071,0.1448
same,L2FC (x + 1),HLTF NM_003071,−2.787
same,L2abs (Cpd-DMSO),HLTF NM_003071,10.04
same,abs (Cpd-DMSO),HLTF NM_003071,1055 iFPM
same,amp FC (x + 1),HLTF NM_003071,6.90
same,ave Cpd,HLTF NM_003071,178 iFPM
same,FC (x + 1),HLTF NM_139048,0.1355
same,L2FC (x + 1),HLTF NM_139048,−2.883
same,L2abs (Cpd-DMSO),HLTF NM_139048,7.75
same,abs (Cpd-DMSO),HLTF NM_139048,216 iFPM
same,amp FC (x + 1),HLTF NM_139048,7.38
same,ave Cpd,HLTF NM_139048,33 iFPM
same,FC (x + 1),HMGA1 AK301434,6.2225
same,L2FC (x + 1),HMGA1 AK301434,2.637
same,L2abs (Cpd-DMSO),HMGA1 AK301434,2.38
same,abs (Cpd-DMSO),HMGA1 AK301434,5 iFPM
same,amp FC (x + 1),HMGA1 AK301434,6.22
same,ave Cpd,HMGA1 AK301434,5 iFPM
same,FC (x + 1),HMGA1 BC008963,1.0191
same,L2FC (x + 1),HMGA1 BC008963,0.027
same,L2abs (Cpd-DMSO),HMGA1 BC008963,4.59
same,abs (Cpd-DMSO),HMGA1 BC008963,24 iFPM
same,amp FC (x + 1),HMGA1 BC008963,1.02
same,ave Cpd,HMGA1 BC008963,1282 iFPM
same,FC (x + 1),HMGA1 BC063434,1.3507
same,L2FC (x + 1),HMGA1 BC063434,0.434
same,L2abs (Cpd-DMSO),HMGA1 BC063434,8.64
same,abs (Cpd-DMSO),HMGA1 BC063434,398 iFPM
same,amp FC (x + 1),HMGA1 BC063434,1.35
same,ave Cpd,HMGA1 BC063434,1532 iFPM
same,FC (x + 1),HMGA1 M23616,1.3227
same,L2FC (x + 1),HMGA1 M23616,0.403
same,L2abs (Cpd-DMSO),HMGA1 M23616,9.01
same,abs (Cpd-DMSO),HMGA1 M23616,517 iFPM
same,amp FC (x + 1),HMGA1 M23616,1.32
same,ave Cpd,HMGA1 M23616,2117 iFPM
same,FC (x + 1),HMGA1 M23618,0.3132
same,L2FC (x + 1),HMGA1 M23618,−1.675
same,L2abs (Cpd-DMSO),HMGA1 M23618,8.74
same,abs (Cpd-DMSO),HMGA1 M23618,429 iFPM
same,amp FC (x + 1),HMGA1 M23618,3.19
same,ave Cpd,HMGA1 M23618,194 iFPM
same,FC (x + 1),HMGA1 M23619,1.1635
same,L2FC (x + 1),HMGA1 M23619,0.218
same,L2abs (Cpd-DMSO),HMGA1 M23619,9.33
same,abs (Cpd-DMSO),HMGA1 M23619,645 iFPM
same,amp FC (x + 1),HMGA1 M23619,1.16
same,ave Cpd,HMGA1 M23619,4589 iFPM
same,FC (x + 1),HMGA1 NM_002131,11.6543
same,L2FC (x + 1),HMGA1 NM_002131,3.543
same,L2abs (Cpd-DMSO),HMGA1 NM_002131,3.41
same,abs (Cpd-DMSO),HMGA1 NM_002131,11 iFPM
same,amp FC (x + 1),HMGA1 NM_002131,11.65
same,ave Cpd,HMGA1 NM_002131,11 iFPM
same,FC (x + 1),HMGA1 NM_145899,1.2617
same,L2FC (x + 1),HMGA1 NM_145899,0.335
same,L2abs (Cpd-DMSO),HMGA1 NM_145899,9.41
same,abs (Cpd-DMSO),HMGA1 NM_145899,680 iFPM
same,amp FC (x + 1),HMGA1 NM_145899,1.26
same,ave Cpd,HMGA1 NM_145899,3278 iFPM
same,FC (x + 1),HMGA1 NM_145901,1.2521
same,L2FC (x + 1),HMGA1 NM_145901,0.324
same,L2abs (Cpd-DMSO),HMGA1 NM_145901,5.57
same,abs (Cpd-DMSO),HMGA1 NM_145901,47 iFPM
same,amp FC (x + 1),HMGA1 NM_145901,1.25
same,ave Cpd,HMGA1 NM_145901,235 iFPM
same,FC (x + 1),HMGA1 NM_145903,1.9030
same,L2FC (x + 1),HMGA1 NM_145903,0.928
same,L2abs (Cpd-DMSO),HMGA1 NM_145903,6.80
same,abs (Cpd-DMSO),HMGA1 NM_145903,111 iFPM
same,amp FC (x + 1),HMGA1 NM_145903,1.90
same,ave Cpd,HMGA1 NM_145903,233 iFPM
same,FC (x + 1),HMGA1 NM_145905,0.6341
same,L2FC (x + 1),HMGA1 NM_145905,−0.657
same,L2abs (Cpd-DMSO),HMGA1 NM_145905,5.13
same,abs (Cpd-DMSO),HMGA1 NM_145905,35 iFPM
same,amp FC (x + 1),HMGA1 NM_145905,1.58
same,ave Cpd,HMGA1 NM_145905,60 iFPM
same,FC (x + 1),HMGB1 AK304506,0.3987
same,L2FC (x + 1),HMGB1 AK304506,−1.327
same,L2abs (Cpd-DMSO),HMGB1 AK304506,10.68
same,abs (Cpd-DMSO),HMGB1 AK304506,1639 iFPM
same,amp FC (x + 1),HMGB1 AK304506,2.51
same,ave Cpd,HMGB1 AK304506,1086 iFPM
same,FC (x + 1),HMGB1 BX647267,0.7428
same,L2FC (x + 1),HMGB1 BX647267,−0.429
same,L2abs (Cpd-DMSO),HMGB1 BX647267,5.77
same,abs (Cpd-DMSO),HMGB1 BX647267,55 iFPM
same,amp FC (x + 1),HMGB1 BX647267,1.35
same,ave Cpd,HMGB1 BX647267,157 iFPM
same,FC (x + 1),HMGB1 CR749614,0.7119
same,L2FC (x + 1),HMGB1 CR749614,−0.490
same,L2abs (Cpd-DMSO),HMGB1 CR749614,5.57
same,abs (Cpd-DMSO),HMGB1 CR749614,47 iFPM
same,amp FC (x + 1),HMGB1 CR749614,1.40
same,ave Cpd,HMGB1 CR749614,116 iFPM
same,FC (x + 1),HMGB1 NM_002128,1.0583
same,L2FC (x + 1),HMGB1 NM_002128,0.082
same,L2abs (Cpd-DMSO),HMGB1 NM_002128,9.81
same,abs (Cpd-DMSO),HMGB1 NM_002128,899 iFPM
same,amp FC (x + 1),HMGB1 NM_002128,1.06
same,ave Cpd,HMGB1 NM_002128,16310 iFPM
same,FC (x + 1),HMGCR AK296499,1.0215
same,L2FC (x + 1),HMGCR AK296499,0.031
same,L2abs (Cpd-DMSO),HMGCR AK296499,−0.44
same,abs (Cpd-DMSO),HMGCR AK296499,1 iFPM
same,amp FC (x + 1),HMGCR AK296499,1.02
same,ave Cpd,HMGCR AK296499,34 iFPM
same,FC (x + 1),HMGCR AY429542,1.0000
